Results published in US10414821.
Results are given in words; binding and its absence hold for the method and conditions named. Some entries that bind do so weakly or less than the wild type.

Sequences of proteins named here, by UniProt entry; tags and fusion partners are left off. A change or cut given only in a name is not applied to a line headed by its entry. Residues count along the entry.
UniProt Q15116, residues 25-170: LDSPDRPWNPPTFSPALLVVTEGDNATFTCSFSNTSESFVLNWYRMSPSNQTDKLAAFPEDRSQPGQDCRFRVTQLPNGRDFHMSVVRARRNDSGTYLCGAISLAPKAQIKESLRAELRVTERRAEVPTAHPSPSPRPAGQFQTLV

Assays:
[1] = molecular target: purified recombinant PD-1 fusion protein (Sino Biological Inc, Cat #: 10377-H08H) (human) (UniProt Q15116); assay: ELISA and Blitz, Example 5
[2] = molecular target: purified recombinant PD-1 fusion protein (Sino Biological Inc, Cat #: 10377-H08H) (human) (UniProt Q15116); assay: ELISA on coated recombinant PD-1 fusion protein (FIG. 1)

binding [1]: binds | binding [2]: binds
B1: BA08-1 (antibody, V domains shown)
VH: QVQLVQSGAEVKKPGASVKVSCKASGYTFTSYYMYWVRQAPGQGLEWMGGVNPSNGGTNFNEKFKSRVTITADKSTSTAYMELSSLRSEDTAVYYCARRDYRYDMGFDYWGQGTTVTVSS
VL: EIVLTQSPATLSLSPGERATISCRASKGVSTSGYSYLHWYQQKPGQAPRLLIYLASYLESGVPARFSGSGSGTDFTLTISSLEPEDFATYYCQHSRELPLTFGTGTKVEIK
